Reference: patent US4725578A, “Compounds having therapeutic effect and the preparation thereof” (Tobishi Pharmaceutical Co., Ltd., priority 1986, dated 1988)

The molecules below were run on P-388 cells (assay: Antineoplastic action against implanted P-388 cells (ip-ip), survival T/C). Conditions: Table 7, P388 (i.P. - i.P.).
Format: in vivo, CDFl mice
Protocol: To the peritoneal cavity of each group of mice consisting of six CDFl mice per group, 10^6 /0.1 ml of P-388 cells or 10^5 /0.1 ml of L-1210 cells were implanted. […]
In the Table, the symbol T/C % means Treatment/Control %, that is the increase in life when the control is 100. […] This method is used in the screening of U.S. National Cancer Institute.
In Table 7, the symbol "i.P.-i.P." means that the tumor cells are implanted intraperitoneally and the compounds being tested are also administered intraperitoneally. The symbol "TR" is the therapeutic ratio obtained by dividing the dose which provides a maximum T/C value, by the dose which provides a minimum T/C value.

| Structure (SMILES) | TR (therapeutic ratio: dose giving maximum T/C divided by dose giving minimum T/C) |
| --- | --- |
| CCCCCCOc1ccc2cc1Oc1ccc(cc1)CC1C(=O)N(C)C(C2)C(=O)NC(C)C(=O)NC(C)C(=O)N(C)C(Cc2ccc(OC)cc2)C(=O)NC(C)C(=O)N1C (stereo not shown) [Ex. 2, n-hexylether of the compound TPC-A] | ≈ 100 |
| COc1ccc(CC2C(=O)NC(C)C(=O)N(C)C3Cc4ccc(cc4)Oc4cc(ccc4OC(C)=O)CC(C(=O)NC(C)C(=O)NC(C)C(=O)N2C)N(C)C3=O)cc1 (stereo not shown) [Ex. 22] | 278 |
| CCCCCC(=O)Oc1ccc2cc1Oc1ccc(cc1)CC1C(=O)N(C)C(C2)C(=O)NC(C)C(=O)NC(C)C(=O)N(C)C(Cc2ccc(OC)cc2)C(=O)NC(C)C(=O)N1C (stereo not shown) [Ex. 21, caproate of TPC-A] | ≈ 200 |
| COc1ccc(C[C@H]2C(=O)N[C@@H](C)C(=O)N(C)[C@H]3Cc4ccc(cc4)Oc4cc(ccc4OC)C[C@@H](C(=O)N[C@H](C)C(=O)N[C@@H](C)C(=O)N2C)N(C)C3=O)cc1 [Methylether of TPC-A] | 400 |
